Data taken from publication PMC11032411.
No constants are given. Whether binding was seen depends on the method and setting. In cells and extracts the contact can be indirect. Some entries that bind do so weakly or less than the wild type.

Protein sequences, listed by entry. Tags and fused reporters are not part of them. Residues count along the entry.
UniProt Q64726, residues 18-307: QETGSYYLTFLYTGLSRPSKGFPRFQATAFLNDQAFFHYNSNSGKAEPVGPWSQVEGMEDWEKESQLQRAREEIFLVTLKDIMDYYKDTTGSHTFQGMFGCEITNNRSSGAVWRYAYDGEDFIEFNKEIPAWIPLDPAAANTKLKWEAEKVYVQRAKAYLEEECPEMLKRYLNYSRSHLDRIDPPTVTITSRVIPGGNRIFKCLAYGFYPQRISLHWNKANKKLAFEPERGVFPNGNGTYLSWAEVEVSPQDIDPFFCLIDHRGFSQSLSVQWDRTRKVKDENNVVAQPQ

Biological target: T1, acylglycerol kinase (AGK) (mouse (endogenous in N2A, GT1-7)) (UniProt Q9ESW4)
T1 sequence: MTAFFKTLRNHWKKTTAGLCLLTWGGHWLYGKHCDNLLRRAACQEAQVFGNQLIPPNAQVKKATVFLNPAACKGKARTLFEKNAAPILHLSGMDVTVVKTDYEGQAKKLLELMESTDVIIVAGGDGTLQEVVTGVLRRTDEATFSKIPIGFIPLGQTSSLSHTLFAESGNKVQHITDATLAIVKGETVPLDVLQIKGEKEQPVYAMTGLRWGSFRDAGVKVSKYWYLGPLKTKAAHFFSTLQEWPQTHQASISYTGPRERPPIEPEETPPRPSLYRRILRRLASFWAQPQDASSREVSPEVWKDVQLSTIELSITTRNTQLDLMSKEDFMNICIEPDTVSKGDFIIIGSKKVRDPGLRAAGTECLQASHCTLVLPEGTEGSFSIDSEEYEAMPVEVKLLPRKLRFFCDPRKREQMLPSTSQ
Assay: co-IP; lysates (500 ug protein) of N2A and GT1-7 cells transfected with LV-Azgp1 or LV-Agk for 48 h; 5 ug of antibody against AZGP1, AGK or IgG (negative control) at 4 °C overnight; protein A/G magnetic beads; immunoblotting

binding: binds
Substance: Zinc-alpha2-glycoprotein (AZGP1) (from UniProt Q64726 18-307)
